PubChem BioAssay AID1159584, Peter MacCallum Cancer Centre | 2016
Here is a random part of about 18,000 deposited reagents. Not stated in the record: the amount of reagent, the time to read-out.

- Screen: 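Genes whose loss is lethal only together with E-cadherin loss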 (primary screen)
- Cells: human MCF10A breast epithelial cells, parental and CDH1-null
- Reagent: siRNA against human genes
- Detection: 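Cell viability by CellTiter-Glo ATP luminescence, each line scaled to the mean of mock wells across plates, then CDH1-null over parental ratio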
- Direction: CDH1-null / parental viability ratio: higher = CDH1-null cells survive relatively better than parental; CDH1-null viability vs mock: higher = more viable CDH1-null cells; parental viability vs mock: higher = more viable parental cells

| gene knocked down | CDH1-null / parental viability ratio | CDH1-null viability vs mock (fraction of mock) | parental viability vs mock (fraction of mock) |
| --- | --- | --- | --- |
| SNRPF | 1.34 | 0.43 | 0.32 |
| RCHY1 | 0.97 | 0.95 | 0.98 |
| ZNF707 | 1.3 | 0.92 | 0.71 |
| DLX4 | 1.26 | 0.88 | 0.7 |
| CRLF2 | 0.89 | 0.88 | 0.99 |
| SERPINF2 | 1.26 | 0.86 | 0.68 |
| LAX1 | 1.11 | 0.61 | 0.55 |
| ZFP37 | 0.83 | 0.68 | 0.82 |
| TAS2R8 | 0.84 | 0.32 | 0.38 |
| CLEC3B | 0.81 | 0.5 | 0.62 |
| CDKN2A | 0.67 | 0.42 | 0.63 |
| HSD17B14 | 0.74 | 0.7 | 0.95 |
| GTPBP4 | 1.03 | 0.64 | 0.62 |
| THEM4 | 1.1 | 1.02 | 0.93 |
| NDUFC2 | 0.97 | 0.96 | 0.99 |
| CFAP58 | 1.03 | 0.8 | 0.78 |
| ECHDC1 | 1.03 | 0.89 | 0.86 |
| SRGAP1 | 1.3 | 1.14 | 0.88 |
| TRAPPC1 | 0.7 | 0.47 | 0.67 |
| MTMR10 | 1.08 | 0.93 | 0.86 |
| POLD1 | 0.99 | 0.87 | 0.88 |
| HLA-DRB5 | 1.11 | 0.69 | 0.62 |
| PSMD13 | 1.11 | 1 | 0.9 |
| BMP7 | 0.97 | 0.6 | 0.62 |
| TRMT9B | 0.73 | 0.35 | 0.48 |
| SGK2 | 0.85 | 0.74 | 0.87 |
| SH3KBP1 | 1.07 | 0.64 | 0.6 |
| PDILT | 0.82 | 0.89 | 1.08 |
| SEC14L3 | 0.73 | 0.58 | 0.79 |
| GPRC5D | 1.41 | 0.96 | 0.68 |
| GZMK | 1.22 | 1 | 0.82 |
| PRPF18 | 1.04 | 0.5 | 0.48 |
| PCDHA9 | 1.03 | 0.72 | 0.7 |
| TMEM52B | 1.14 | 0.98 | 0.86 |
| VAC14 | 0.77 | 0.62 | 0.8 |
| FKBP1B | 0.97 | 0.94 | 0.97 |
| KCNRG | 1.26 | 0.93 | 0.74 |
| REEP6 | 1.21 | 0.52 | 0.43 |
| ATXN7L1 | 1.05 | 1.29 | 1.23 |
| TBKBP1 | 1.08 | 0.95 | 0.88 |
| CTNNA1 | 1.12 | 0.48 | 0.43 |
| TSPAN16 | 0.95 | 0.9 | 0.95 |
| MED26 | 0.72 | 0.26 | 0.36 |
| ACOT11 | 0.82 | 0.62 | 0.76 |
| FBL | 1.21 | 0.64 | 0.53 |
| BAG3 | 0.98 | 1 | 1.02 |
| NCAPD3 | 0.85 | 0.57 | 0.67 |
| PDE8B | 1.65 | 0.94 | 0.57 |
| HOXC9 | 0.97 | 1.03 | 1.06 |
| VPS29 | 0.88 | 0.92 | 1.04 |
| ZNF597 | 1.17 | 1.01 | 0.86 |
| ERLEC1 | 1 | 0.89 | 0.89 |
| UBXN1 | 0.97 | 0.97 | 1 |
| SRSF4 | 1.15 | 1.06 | 0.92 |
| ELAVL4 | 1 | 0.89 | 0.89 |
| ZDHHC22 | 0.8 | 0.4 | 0.5 |
| VPS39 | 1.12 | 0.66 | 0.59 |
| ATG9A | 1.67 | 0.7 | 0.42 |
| ESYT2 | 1.12 | 0.76 | 0.68 |
| PYGB | 1.12 | 0.9 | 0.8 |
| ZNF675 | 1 | 0.8 | 0.8 |
| MORN5 | 1.88 | 1.09 | 0.58 |
| KIFC1 | 0.87 | 0.78 | 0.9 |
| LCN15 | 0.83 | 0.35 | 0.42 |
| TMEM63A | 1.12 | 0.65 | 0.58 |
| BANK1 | 0.79 | 0.74 | 0.94 |
| TLR1 | 1.02 | 0.82 | 0.8 |
| ZGPAT | 1.21 | 0.88 | 0.73 |

An excerpt from above, reduced to “CDH1-null viability vs mock (fraction of mock)”.
PRPF18 = 0.5
PCDHA9 = 0.72
TMEM52B = 0.98
VAC14 = 0.62
